Article PMC12235220, “Cell‐Penetrating Peptide‐Based Triple Nanocomplex Enables Efficient Nuclear Gene Delivery in Chlamydomonas reinhardtii” (Biotechnology and Bioengineering, 2025)
“Also recorded” adds a separate entry of the source.

Tested on: pChlamy4 plasmid DNA
Experiment: Electrophoretic mobility shift assay (EMSA) of nanocomplex formation with plasmid DNA
Format: binding
Conditions: SV40/DNA ratios 0.1:1 to 20:1, 0.5 µg pChlamy4, 20 min, 1% agarose gel

Substance: PKKKRKV [SV40, simian virus 40 nuclear localization signal peptide, Rhodamine B at the N-terminus]
- Complexation between SV40 NLS peptide and plasmid DNA: did not bind to plasmid DNA; also recorded: no complexation
